Reference: publication PMC10165364

The chains behind the UniProt entries cited, without tags or fusion partners. Residues count along the entry.
UniProt Q13472, 16-934 A95V: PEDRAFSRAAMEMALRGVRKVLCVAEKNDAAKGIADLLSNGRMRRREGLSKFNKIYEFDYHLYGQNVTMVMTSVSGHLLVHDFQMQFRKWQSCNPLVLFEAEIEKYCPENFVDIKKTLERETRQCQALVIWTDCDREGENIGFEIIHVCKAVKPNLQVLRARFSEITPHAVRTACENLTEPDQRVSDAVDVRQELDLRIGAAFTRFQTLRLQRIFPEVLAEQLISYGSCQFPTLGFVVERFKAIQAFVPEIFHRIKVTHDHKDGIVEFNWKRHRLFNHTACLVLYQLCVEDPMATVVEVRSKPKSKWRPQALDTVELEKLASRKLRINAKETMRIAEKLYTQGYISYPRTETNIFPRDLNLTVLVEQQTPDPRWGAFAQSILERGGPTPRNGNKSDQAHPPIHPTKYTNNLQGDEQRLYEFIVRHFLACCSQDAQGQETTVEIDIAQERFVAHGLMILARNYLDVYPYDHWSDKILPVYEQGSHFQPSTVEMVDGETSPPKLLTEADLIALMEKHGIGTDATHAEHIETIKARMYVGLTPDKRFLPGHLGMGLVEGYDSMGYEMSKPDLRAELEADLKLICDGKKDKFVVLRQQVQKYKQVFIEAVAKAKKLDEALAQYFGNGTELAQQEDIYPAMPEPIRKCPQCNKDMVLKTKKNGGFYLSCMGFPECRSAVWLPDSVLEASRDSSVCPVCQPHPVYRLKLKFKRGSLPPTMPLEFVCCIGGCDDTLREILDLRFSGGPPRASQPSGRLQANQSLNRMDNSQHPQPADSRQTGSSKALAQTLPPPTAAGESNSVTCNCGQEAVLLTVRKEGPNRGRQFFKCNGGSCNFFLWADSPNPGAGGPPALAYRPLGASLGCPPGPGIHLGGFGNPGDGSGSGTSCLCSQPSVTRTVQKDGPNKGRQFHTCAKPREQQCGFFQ
UniProt Q13472, 16-934 A176V: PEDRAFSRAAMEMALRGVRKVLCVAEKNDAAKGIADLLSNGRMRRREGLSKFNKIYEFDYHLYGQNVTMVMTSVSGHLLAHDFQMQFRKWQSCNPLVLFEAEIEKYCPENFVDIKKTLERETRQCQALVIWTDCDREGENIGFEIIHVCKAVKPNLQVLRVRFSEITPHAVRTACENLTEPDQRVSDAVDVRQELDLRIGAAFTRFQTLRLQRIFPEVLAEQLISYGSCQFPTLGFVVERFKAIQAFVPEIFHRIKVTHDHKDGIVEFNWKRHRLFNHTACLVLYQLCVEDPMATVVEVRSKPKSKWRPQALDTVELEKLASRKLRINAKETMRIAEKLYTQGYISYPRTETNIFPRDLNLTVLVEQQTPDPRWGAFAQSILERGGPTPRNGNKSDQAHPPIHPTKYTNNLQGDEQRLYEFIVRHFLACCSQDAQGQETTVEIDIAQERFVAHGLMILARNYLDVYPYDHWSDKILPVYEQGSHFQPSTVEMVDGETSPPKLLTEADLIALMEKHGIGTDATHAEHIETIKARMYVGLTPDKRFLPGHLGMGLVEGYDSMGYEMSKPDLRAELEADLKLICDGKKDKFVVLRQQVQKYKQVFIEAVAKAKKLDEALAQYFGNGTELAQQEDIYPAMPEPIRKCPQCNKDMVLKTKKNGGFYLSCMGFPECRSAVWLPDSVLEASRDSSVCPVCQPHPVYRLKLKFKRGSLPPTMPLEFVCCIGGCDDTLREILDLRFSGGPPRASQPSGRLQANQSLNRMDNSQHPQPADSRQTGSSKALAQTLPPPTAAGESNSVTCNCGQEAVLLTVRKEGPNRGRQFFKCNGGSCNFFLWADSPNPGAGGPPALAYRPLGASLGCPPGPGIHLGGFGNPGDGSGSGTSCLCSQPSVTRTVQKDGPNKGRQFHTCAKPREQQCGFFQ

Experiments:
[1] = molecular target: TOP3A Ala95Val (Homo sapiens) (UniProt Q13472); assay: EMSA; conditions: comparable to WT; 25 mM HEPES pH 7.5, 70 mM NaCl, 100 ug/ml BSA, 1 mM DTT, 10% glycerol; 10 fmol oligo, 0-250 fmol TOP3A in 20 ul; 37 C 15 min, then ice; 8% native PAGE in 0.5x TBE at 4 C; recombinant protein; residues 16-934; protein details: N-terminal TEV-cleavable 6xHis, cleaved; label: 5' 32P; single-stranded DNA
[2] = molecular target: TOP3A Ala176Val (Homo sapiens) (UniProt Q13472); assay: EMSA; conditions: comparable to WT; 25 mM HEPES pH 7.5, 70 mM NaCl, 100 ug/ml BSA, 1 mM DTT, 10% glycerol; 10 fmol oligo, 0-250 fmol TOP3A in 20 ul; 37 C 15 min, then ice; 8% native PAGE in 0.5x TBE at 4 C; recombinant protein; residues 16-934; protein details: N-terminal TEV-cleavable 6xHis, cleaved; label: 5' 32P; single-stranded DNA

## ACCACATTAACAACATAAAACCCTCATTCACACGAGAAAACACCCTCATGTTCATACACCTATCCCCCATTCTCCTCCTA [EMSA substrate 80-mer]
[1]
  binding result: binds
[2]
  binding result: binds

For at least one entry, the source does not settle the construct or the ends of the probe. At least one verdict was read from the data and is not stated in words by the source.
